Test results reported in paper PMC6110731.
Results are given in words; binding and its absence hold for the method and conditions named. Binding seen in cells or lysates may run through a third protein. Some binding calls cover weakened binding; strength is not graded here.

By UniProt entry, the sequences of proteins in these tests, tags left out.
UniProt Q9NZ42: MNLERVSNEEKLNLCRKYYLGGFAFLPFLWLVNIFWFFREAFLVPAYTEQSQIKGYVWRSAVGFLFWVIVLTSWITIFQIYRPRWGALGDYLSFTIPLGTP
UniProt Q96BI3: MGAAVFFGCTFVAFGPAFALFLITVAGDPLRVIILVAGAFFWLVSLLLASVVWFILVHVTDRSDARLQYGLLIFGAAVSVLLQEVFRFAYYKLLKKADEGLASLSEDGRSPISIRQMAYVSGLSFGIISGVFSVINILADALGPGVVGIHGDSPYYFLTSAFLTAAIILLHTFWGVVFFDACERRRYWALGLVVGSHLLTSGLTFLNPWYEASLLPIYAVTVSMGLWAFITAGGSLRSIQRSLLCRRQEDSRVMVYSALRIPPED

Biological target: Presenilin Enhancer 2 with N-terminal Calmodulin Binding Protein tag (CBP-PEN-2) (human) (UniProt Q9NZ42)
Assay: pull-down; Calmodulin affinity resin (CBP tag on PEN-2): pooled 100 mM imidazole IMAC fractions with 2 mM CaCl2 and 2 mM MgOAc, 16 h at 4 °C, elution 10 mM EGTA in 0.5% CHAPSO Tris buffer, concentrated on a 50 kDa filter; Coomassie and immunoblot

- binding: binds
Substance: Anterior Pharynx Homologue 1a, long isoform (APH1aL) (from UniProt Q96BI3 1-265)
